In US5922545A, “In vitro peptide and antibody display libraries” (Affymax Technologies N.V., priority 1997, dated 1999):
pIC50: −log10 of the molar value. Not every detail of the peptide structures is certain; ends, links or a residue may be inferred. Peptide text beside a SMILES is read from it.

Molecular target: mAb D32.39
Assay: competition binding assay of synthesized peptides for mAb D32.39
Details: 50 pM tracer peptide containing the D32.39 epitope sequence, IC50 should approximate the Kd, read-out: binding affinity for mAb D32.39 (IC50)
Text: FIG. 6. (SEQ. ID NO: 50-74) Amino acid alignment of selected peptide sequences with dynorphin B. The six-residue D32.39 epitope sequence of dynorphin B and the peptide regions similar to it are shown in the box. A total of 6, 13, 19, and 9 independent clones were sequenced from rounds 2, 3, 4 and 5, respectively. The frequency indicates the number of times each sequence occurred among the clones isolated from each round, and the asterisks indicate identical sequences found in different rounds. Binding affinities for D32.39 were determined by chemically synthesizing the indicated peptide sequences and measuring the IC50 as described in the Experimental Examples.
Peptides were synthesized with an Applied Biosystems model 431A peptide synthesizer using Fmoc-protected amino acids. The peptides were purified to greater than 90% purity by HPLC and confirmed by mass spectroscopy. The competition binding assay was performed and included a low concentration (50 pM) of the tracer peptide containing the D32.39 epitope sequence.
Peptides corresponding to some of the enriched sequences were chemically synthesized, purified and their identity confirmed by mass spectrometry. A competition binding assay was used to estimate their affinity for the mAb D32.39 and under the conditions of the assays the IC50 value should approximate the Kd. […]

SMILES	pIC50
CC[C@H](C)[C@H](NC(=O)[C@@H]1CCCN1)C(=O)N[C@@H](CCSC)C(=O)N[C@@H](CCCNC(=N)N)C(=O)N[C@@H](CO)C(=O)N[C@@H](Cc1ccccc1)C(=O)N[C@@H](CCCCN)C(=O)N[C@H](C(=O)N[C@H](C(=O)N[C@@H](CC(C)C)C(=O)O)C(C)C)C(C)C [clone 505, PIMRSFKVVL] (H-PIMRSFKVVL-OH)	8.15
CC(C)[C@H](NC(=O)[C@H](CO)NC(=O)[C@H](Cc1ccccc1)NC(=O)[C@H](CCCNC(=N)N)NC(=O)[C@H](CCCNC(=N)N)NC(=O)[C@H](CCC(=O)O)NC(=O)[C@H](CO)NC(=O)[C@@H](N)Cc1ccccc1)C(=O)N[C@@H](CS)C(=O)N[C@@H](Cc1c[nH]c2ccccc12)C(=O)O [FSERRFSVCW] (H-FSERRFSVCW-OH)	6.96
